# From the supplement of paper PMC6411743
# ± gives the standard deviation of the averaged measurements. The list shows a part of the results.
# Assays:
# Assay in all cases: NP40-soluble protein abundance relative to vehicle (solubility fold change) (ratio); higher = more soluble protein in presence of GTP
# PREB = biological target: T1, PREB (UniProt Q9HCU5)
# T1 sequence (whole entry): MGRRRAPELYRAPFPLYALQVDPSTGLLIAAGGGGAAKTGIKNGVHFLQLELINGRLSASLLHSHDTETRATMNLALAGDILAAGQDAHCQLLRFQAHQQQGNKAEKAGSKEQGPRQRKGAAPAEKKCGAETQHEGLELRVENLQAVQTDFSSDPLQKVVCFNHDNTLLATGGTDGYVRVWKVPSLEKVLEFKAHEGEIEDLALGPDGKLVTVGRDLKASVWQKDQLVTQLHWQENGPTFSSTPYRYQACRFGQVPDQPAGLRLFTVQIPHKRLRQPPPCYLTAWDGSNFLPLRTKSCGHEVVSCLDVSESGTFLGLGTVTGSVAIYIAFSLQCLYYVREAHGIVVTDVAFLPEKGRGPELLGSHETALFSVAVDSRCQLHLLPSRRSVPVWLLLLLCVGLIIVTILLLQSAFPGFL
# Summary of the method: (§1)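 Jurkat crude lysate (Dounce-homogenised) was treated with eight concentrations from 0.1 to 10 mM for 10 min at room temperature, then 3 min at 37 °C. It was solubilised with 0.8% NP40 and benzonase (60 min, 4 °C) and ultracentrifuged, and the supernatant was TMT-labelled for LC-MS/MS. Intensities were vsn-normalised, and the value is the fold change against the NP40-processed vehicle per replicate, from three independent experiments.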
# PRKRIP1 = biological target: T2, PRKRIP1 (UniProt Q9H875)
# T2 sequence (whole entry): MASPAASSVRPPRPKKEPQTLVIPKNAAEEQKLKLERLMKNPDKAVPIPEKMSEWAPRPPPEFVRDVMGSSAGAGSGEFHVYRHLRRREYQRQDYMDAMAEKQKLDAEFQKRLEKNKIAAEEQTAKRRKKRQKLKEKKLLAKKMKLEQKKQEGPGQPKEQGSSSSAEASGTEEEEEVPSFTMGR
# Summary of the method: as §1
# RBM12 = biological target: T3, RBM12 (UniProt Q9NTZ6)
# T3 sequence (whole entry): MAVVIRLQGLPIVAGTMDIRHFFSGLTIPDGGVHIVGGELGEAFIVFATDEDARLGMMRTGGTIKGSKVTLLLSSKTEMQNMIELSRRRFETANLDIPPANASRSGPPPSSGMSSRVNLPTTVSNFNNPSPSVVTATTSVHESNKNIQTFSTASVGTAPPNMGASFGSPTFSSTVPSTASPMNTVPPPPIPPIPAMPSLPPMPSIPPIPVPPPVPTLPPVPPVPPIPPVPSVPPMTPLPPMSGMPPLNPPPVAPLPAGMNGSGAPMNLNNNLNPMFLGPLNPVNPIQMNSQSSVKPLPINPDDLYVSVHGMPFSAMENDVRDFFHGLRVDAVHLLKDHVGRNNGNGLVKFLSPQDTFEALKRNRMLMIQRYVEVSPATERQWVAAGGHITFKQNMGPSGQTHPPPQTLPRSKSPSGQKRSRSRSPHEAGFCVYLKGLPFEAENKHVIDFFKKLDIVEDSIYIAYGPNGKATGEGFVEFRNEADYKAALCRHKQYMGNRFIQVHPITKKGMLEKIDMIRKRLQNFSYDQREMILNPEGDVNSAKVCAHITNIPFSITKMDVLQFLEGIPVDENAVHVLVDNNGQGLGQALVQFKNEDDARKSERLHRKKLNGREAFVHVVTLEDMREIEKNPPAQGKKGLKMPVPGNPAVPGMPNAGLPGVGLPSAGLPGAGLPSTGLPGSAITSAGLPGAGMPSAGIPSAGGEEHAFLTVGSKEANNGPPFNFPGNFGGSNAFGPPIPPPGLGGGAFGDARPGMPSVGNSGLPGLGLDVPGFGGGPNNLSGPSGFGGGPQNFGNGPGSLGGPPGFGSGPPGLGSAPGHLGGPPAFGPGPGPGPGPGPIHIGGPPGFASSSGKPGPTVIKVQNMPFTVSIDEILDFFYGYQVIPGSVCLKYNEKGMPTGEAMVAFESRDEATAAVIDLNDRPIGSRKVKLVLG
# Summary of the method: as §1
# [1] = biological target: T4, UniProt Q9GZT6 and related entries
# T4 sequence (whole entry): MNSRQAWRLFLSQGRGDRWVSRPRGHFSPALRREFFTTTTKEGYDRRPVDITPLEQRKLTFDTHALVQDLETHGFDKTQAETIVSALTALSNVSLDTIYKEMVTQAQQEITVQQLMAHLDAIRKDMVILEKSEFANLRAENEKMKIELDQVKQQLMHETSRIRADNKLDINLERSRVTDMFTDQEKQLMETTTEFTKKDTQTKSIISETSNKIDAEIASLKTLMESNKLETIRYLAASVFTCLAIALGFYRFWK
# Summary of the method: as §1
# UniProt Q9H0G5 = biological target: T5, UniProt Q9H0G5
# T5 sequence (whole entry): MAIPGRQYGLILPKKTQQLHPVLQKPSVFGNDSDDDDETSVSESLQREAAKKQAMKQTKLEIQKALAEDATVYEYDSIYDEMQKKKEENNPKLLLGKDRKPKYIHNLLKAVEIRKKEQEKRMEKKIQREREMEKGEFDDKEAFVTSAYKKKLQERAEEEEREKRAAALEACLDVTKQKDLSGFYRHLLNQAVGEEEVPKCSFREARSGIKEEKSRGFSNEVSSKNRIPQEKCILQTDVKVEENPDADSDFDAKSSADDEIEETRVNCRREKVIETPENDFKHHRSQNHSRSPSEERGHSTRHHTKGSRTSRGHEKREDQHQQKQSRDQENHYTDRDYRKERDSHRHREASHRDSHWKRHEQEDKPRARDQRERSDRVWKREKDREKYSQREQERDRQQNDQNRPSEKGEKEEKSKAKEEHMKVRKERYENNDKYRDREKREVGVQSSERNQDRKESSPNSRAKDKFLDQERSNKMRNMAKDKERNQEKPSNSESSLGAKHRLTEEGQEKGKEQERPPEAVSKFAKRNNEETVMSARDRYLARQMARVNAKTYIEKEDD
# Summary of the method: as §1
smiles,measurement,setting,value
Nc1nc2c(ncn2[C@@H]2O[C@H](COP(=O)(O)OP(=O)(O)OP(=O)(O)O)[C@@H](O)[C@H]2O)c(=O)[nH]1 [guanosine triphosphate],NP40-soluble protein abundance,PREB; concentration: 1mM,0.985 ± 0.014
same,NP40-soluble protein abundance,PREB; concentration: 2mM,1.07 ± 0.055
same,NP40-soluble protein abundance,PREB; concentration: 4mM,1.02 ± 0.015
same,NP40-soluble protein abundance,PREB; concentration: 6mM,0.985 ± 0.02
same,NP40-soluble protein abundance,PREB; concentration: 8mM,0.96 ± 0.032
same,NP40-soluble protein abundance,PREB; concentration: 10mM,0.965 ± 0.043
same,NP40-soluble protein abundance,PRKRIP1; concentration: 0.1mM,0.918 ± 0.034
same,NP40-soluble protein abundance,PRKRIP1; concentration: 0.5mM,0.908 ± 0.068
same,NP40-soluble protein abundance,PRKRIP1; concentration: 1mM,0.982 ± 0.046
same,NP40-soluble protein abundance,PRKRIP1; concentration: 2mM,0.999 ± 0.13
same,NP40-soluble protein abundance,PRKRIP1; concentration: 4mM,0.962 ± 0.089
same,NP40-soluble protein abundance,PRKRIP1; concentration: 6mM,1.02 ± 0.14
same,NP40-soluble protein abundance,PRKRIP1; concentration: 8mM,1 ± 0.1
same,NP40-soluble protein abundance,PRKRIP1; concentration: 10mM,1.15 ± 0.02
same,NP40-soluble protein abundance,RBM12; concentration: 0.1mM,0.961 ± 0.029
same,NP40-soluble protein abundance,RBM12; concentration: 0.5mM,0.967 ± 0.042
same,NP40-soluble protein abundance,RBM12; concentration: 1mM,0.936 ± 0.058
same,NP40-soluble protein abundance,RBM12; concentration: 2mM,0.894 ± 0.06
same,NP40-soluble protein abundance,RBM12; concentration: 4mM,0.883 ± 0.055
same,NP40-soluble protein abundance,RBM12; concentration: 6mM,0.885 ± 0.07
same,NP40-soluble protein abundance,RBM12; concentration: 8mM,0.873 ± 0.054
same,NP40-soluble protein abundance,RBM12; concentration: 10mM,0.857 ± 0.064
same,NP40-soluble protein abundance,[1]; concentration: 0.1mM,0.843 ± 0.048
same,NP40-soluble protein abundance,[1]; concentration: 0.5mM,0.82 ± 0.044
same,NP40-soluble protein abundance,[1]; concentration: 1mM,0.983 ± 0.063
same,NP40-soluble protein abundance,[1]; concentration: 2mM,0.904 ± 0.036
same,NP40-soluble protein abundance,[1]; concentration: 4mM,0.891 ± 0.07
same,NP40-soluble protein abundance,[1]; concentration: 6mM,0.944 ± 0.073
same,NP40-soluble protein abundance,[1]; concentration: 8mM,0.922 ± 0.079
same,NP40-soluble protein abundance,[1]; concentration: 10mM,0.953 ± 0.048
same,NP40-soluble protein abundance,UniProt Q9H0G5; concentration: 0.1mM,0.999 ± 0.055
same,NP40-soluble protein abundance,UniProt Q9H0G5; concentration: 0.5mM,1.01 ± 0.034
same,NP40-soluble protein abundance,UniProt Q9H0G5; concentration: 1mM,1.04 ± 0.018
same,NP40-soluble protein abundance,UniProt Q9H0G5; concentration: 2mM,1.02 ± 0.067

# Random excerpt: 2 records from the list, in no set order.
smiles,measurement,setting,value
Nc1nc2c(ncn2[C@@H]2O[C@H](COP(=O)(O)OP(=O)(O)OP(=O)(O)O)[C@@H](O)[C@H]2O)c(=O)[nH]1 [guanosine triphosphate],NP40-soluble protein abundance,PRKRIP1; concentration: 2mM,0.999 ± 0.13
same,NP40-soluble protein abundance,PRKRIP1; concentration: 6mM,1.02 ± 0.14
